# The other results are listed elsewhere or left out. The data scatter; read single values as rough.
# The chains behind the UniProt entries cited, without tags or fusion partners. Where a name states a change or a piece, a line headed by the entry shows the natural chain unless it says otherwise.
# UniProt O14802: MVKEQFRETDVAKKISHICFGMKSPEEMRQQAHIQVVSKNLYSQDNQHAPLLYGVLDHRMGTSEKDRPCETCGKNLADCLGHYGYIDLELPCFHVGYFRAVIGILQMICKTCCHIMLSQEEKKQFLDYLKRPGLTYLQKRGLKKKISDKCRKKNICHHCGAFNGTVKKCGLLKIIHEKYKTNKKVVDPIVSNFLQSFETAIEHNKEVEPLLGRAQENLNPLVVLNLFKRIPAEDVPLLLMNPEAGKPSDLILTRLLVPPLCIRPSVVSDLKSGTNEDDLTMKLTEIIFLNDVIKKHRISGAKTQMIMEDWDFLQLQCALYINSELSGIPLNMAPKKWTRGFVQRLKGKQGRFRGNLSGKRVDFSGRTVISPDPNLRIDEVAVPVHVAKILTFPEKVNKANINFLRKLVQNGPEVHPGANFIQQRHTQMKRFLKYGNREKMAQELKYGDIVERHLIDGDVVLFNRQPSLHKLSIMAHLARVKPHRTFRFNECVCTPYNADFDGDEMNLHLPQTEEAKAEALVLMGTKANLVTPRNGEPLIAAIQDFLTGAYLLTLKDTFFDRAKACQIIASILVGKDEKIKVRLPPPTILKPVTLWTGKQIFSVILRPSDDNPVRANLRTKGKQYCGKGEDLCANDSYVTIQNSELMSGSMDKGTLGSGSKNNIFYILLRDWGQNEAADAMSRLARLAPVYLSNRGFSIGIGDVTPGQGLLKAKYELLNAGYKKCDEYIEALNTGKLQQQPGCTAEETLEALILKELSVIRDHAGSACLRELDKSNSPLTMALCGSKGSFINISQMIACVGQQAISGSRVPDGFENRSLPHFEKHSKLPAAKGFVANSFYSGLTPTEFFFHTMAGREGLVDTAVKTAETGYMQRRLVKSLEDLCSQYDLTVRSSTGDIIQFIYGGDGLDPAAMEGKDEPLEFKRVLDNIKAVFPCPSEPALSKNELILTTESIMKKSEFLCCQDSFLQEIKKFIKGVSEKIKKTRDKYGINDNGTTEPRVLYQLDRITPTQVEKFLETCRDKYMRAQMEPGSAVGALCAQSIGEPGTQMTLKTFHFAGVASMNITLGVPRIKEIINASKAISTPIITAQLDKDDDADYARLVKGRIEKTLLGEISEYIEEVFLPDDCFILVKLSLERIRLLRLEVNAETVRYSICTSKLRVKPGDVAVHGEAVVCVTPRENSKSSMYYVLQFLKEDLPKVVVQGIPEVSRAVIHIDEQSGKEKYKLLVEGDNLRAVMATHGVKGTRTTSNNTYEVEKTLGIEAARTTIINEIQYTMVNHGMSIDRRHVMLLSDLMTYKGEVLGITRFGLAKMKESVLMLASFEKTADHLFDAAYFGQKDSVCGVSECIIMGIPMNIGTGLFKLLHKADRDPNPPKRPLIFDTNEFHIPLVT
# Biological target: T1, POLR3A C1037 (UniProt O14802)
# T1 sequence (whole entry): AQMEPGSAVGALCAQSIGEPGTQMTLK
# Assay: log2 mean competition ratio of IA-DTB cysteine labelling (DMSO/compound) (log2 ratio); higher = stronger cysteine engagement by compound
# Conditions: 50 µM; treatment time: 4 h; cell line lysate: HEK293T
# Description: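 IA-DTB competitive cysteine chemoproteomics in HEK293T RIPA lysate. Lysates were treated with compound 29 or 30 at 50 or 200 µM for 4 h, then IA-DTB (500 µM, 1 h), trypsin-digested, NeutrAvidin-enriched and analysed by diaPASEF. Competition ratio = intensity DMSO / intensity compound (n=4 treated, n=64 DMSO); binding: mean log2 CR ≥ 1 and p ≤ 0.05 plus QC filters. Target is the cysteine site.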
row,SMILES,log2 mean competition ratio
1,O=C(CCl)N[C@H]1CCCc2ccccc21,0.317
2,O=C(CCl)N[C@@H]1CCCc2ccccc21,0.307

# Same assay, conditions: 200 µM; treatment time: 4 h; cell line lysate: HEK293T
row,SMILES,log2 mean competition ratio
1,O=C(CCl)N[C@H]1CCCc2ccccc21,-0.286
2,O=C(CCl)N[C@@H]1CCCc2ccccc21,-0.19

# From the supplement of paper PMC11732987, “Enantioselective OTUD7B fragment discovery through chemoproteomics screening and high-throughput optimisation” (Communications Chemistry, 2025)
